From patent publication US20230192686A1, “1H-PYRROLO[2,3-B]PYRIDINES AND PREPARATION AND USES THEREOF” (BioSplice Therapeutics, Inc., priority 2021, published 2023) come the findings set out here.

The test concerns the target recombinant DYRK1A kinase (Homo sapiens, UniProt Q13627). The test is described as follows: DYRK1A kinase assay (Ser/Thr 18 peptide Z-lyte FRET). Particulars: DYRK1A kinase activity; 15 μM ATP, 4 μM Ser/Thr peptide 18, one hour at room temperature. The method, then:
Representative compounds were screened using the assay procedure for DYRK1A kinase activity as described below.
Each compound was dissolved in DMSO as a 10 mM stock and used to prepare compound source plates. Serial dilution (1:3, 11-point dose-response curves from 10 μM to 0.00016 μM) and compound transfer was performed using the ECHO 550 (Labcyte, Sunnyvale, Calif.) into 1536-well black-walled round bottom plates (Corning).
The DYRK1A kinase assay was run using the Ser/Thr 18 peptide Z-lyte assay kit according to manufacturer's instructions (Life Technologies—a Division of Thermo-Fisher). This is a non-radioactive assay using fluorescence resonance energy transfer (FRET) between coumarin and fluorescein to detect kinase activity which is represented as a ratio of coumarin emission/fluorescein emission. […]
After incubation, Development Reagent A was diluted in Development Buffer then added to the reaction and allowed to further incubate for one hour at room temperature. The plate was read at Ex 400 Em 455 to detect the coumarin signal and Ex 400 Em 520 to measure the signal (EnVision Multilabel Plate Reader, PerkinElmer).
The Emission ratio (Em) was calculated as a ratio of the coumarin (C) emission signal (at 445 nm)/Fluorescein (F) emission signal (at 520 nm). […]

What is called EC50 is the midpoint of the concentration-response curve.

Structures are written as SMILES. The match of structure and compound is tentative.

Regarding `c1cnc2[nH]cc(-c3ccc4ncncc4c3)c2c1`, the EC50 is 4 nM.

As to `Cc1nc2ncc(-c3c[nH]c4nc(C5CC5)ccc34)cc2n1C(C)C`, the EC50 was found to be 7 nM.
